Measurements reported in PubChem BioAssay AID1259308 (NCATS, 2017).
Shown is an unselected part of about 59,000 reagents tested. About 1,510 of all reagents (2.6%) count as active. 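Calls use total luciferase alone and ignore viability, so some active siRNAs may act by altering cell number.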 Entries without a mark were called inactive. The numbers tell different reagents against one gene apart.

- Assay: 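Candidate targets for better recombinant protein yield in mammalian cells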 (primary screen)
- System: human HEK293 embryonic kidney cells stably expressing firefly luciferase (HEK-CMV-Luc2-Hygro)
- Reagents: single siRNA against human genes, 0.8 pmol siRNA per well
- Duration: 72 h
- Read-out: 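Reporter luminescence and viable-cell signal on separate replicate plates, given as percent of non-targeting control and median/MAD z-scores, plus per-cell luciferase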
- Direction: total luciferase, z-score and total luciferase, % of control: higher = more reporter protein produced; luciferase per cell, z-score: higher = more reporter output per viable cell; viable cells, % of control: higher = more viable cells
- Hit rule: 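Active when the median/MAD z-score for overall luciferase is greater than 3; a gene was taken forward for validation with new siRNAs if at least two of its three siRNAs passed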
- Calls: active = raised luciferase; inactive = no rise

target | siRNA no. | total luciferase, z-score | total luciferase, % of control | luciferase per cell, z-score | viable cells, % of control
OR4C16 (olfactory receptor family 4 subfamily C member 16) | 1 | 0.0308 | 82.5 | 0.663 | 77.4
OR4C16 (olfactory receptor family 4 subfamily C member 16) | 2 | 0.137 | 84.6 | 0.329 | 86.7
OR4C16 (olfactory receptor family 4 subfamily C member 16) | 3 | 2.94 | 140 | 1.73 | 99.5
LINC02905 (long independently transcribed non-coding RNA 2905) | 1 | 0.506 | 92 | 0.0653 | 101
LINC02905 (long independently transcribed non-coding RNA 2905) | 2 | 0.798 | 97.8 | 1.01 | 83.8
LINC02905 (long independently transcribed non-coding RNA 2905) | 3 | -0.0225 | 81.4 | -0.0423 | 92
LDLR (low density lipoprotein receptor) | 1 | 0.725 | 96.3 | 0.945 | 83.9
LDLR (low density lipoprotein receptor) | 2 | -1.04 | 61.1 | -1.03 | 89.5
LDLR (low density lipoprotein receptor) | 3 | 1.58 | 113 | 2.2 | 70.9
TTN (titin) | 1 | -0.883 | 64.3 | -1.1 | 96.1
TTN (titin) | 2 | 0.0172 | 82.2 | 0.181 | 87.6
TTN (titin) | 3 | 0.249 | 86.8 | -0.604 | 114
MCEMP1 (mast cell expressed membrane protein 1) | 1 | 0.045 | 82.8 | 0.0383 | 91.6
MCEMP1 (mast cell expressed membrane protein 1) | 2 | 2.89 | 139 | 2.13 | 88.9
MCEMP1 (mast cell expressed membrane protein 1) | 3 | -0.231 | 77.3 | -0.46 | 97.5
STK39 (serine/threonine kinase 39) | 1 | 1.13 | 104 | 0.773 | 95.2
STK39 (serine/threonine kinase 39) | 2 | -0.751 | 66.9 | 0.047 | 73.9
STK39 (serine/threonine kinase 39) | 3 | -0.518 | 71.6 | 0.0699 | 78.5
CTNNA1 (catenin alpha 1) | 1 | -1.82 | 45.6 | -1.42 | 74.1
CTNNA1 (catenin alpha 1) | 2 | 0.0978 | 83.8 | -0.289 | 101
CTNNA1 (catenin alpha 1) | 3 | 0.128 | 84.4 | -0.318 | 103
SLAMF7 (SLAM family member 7) | 1 | 4.89 (active) | 179 | 2.85 | 94.5
SLAMF7 (SLAM family member 7) | 2 | 0.933 | 100 | 1.04 | 85.5
SLAMF7 (SLAM family member 7) | 3 | 0.0418 | 82.7 | 0.562 | 79.7
PMEPA1 (prostate transmembrane protein, androgen induced 1) | 1 | 3.89 (active) | 159 | 2.4 | 94.7
PMEPA1 (prostate transmembrane protein, androgen induced 1) | 2 | -0.479 | 72.4 | -0.986 | 105
PMEPA1 (prostate transmembrane protein, androgen induced 1) | 3 | 1.01 | 102 | 1.59 | 74.9
MACROH2A2 (macroH2A.2 histone) | 1 | -0.57 | 70.5 | 0.214 | 74.5
MACROH2A2 (macroH2A.2 histone) | 2 | 1.01 | 102 | 1.07 | 86.1
MACROH2A2 (macroH2A.2 histone) | 3 | 0.219 | 86.2 | 0.356 | 87.7
ARHGEF6 (Rac/Cdc42 guanine nucleotide exchange factor 6) | 1 | -1.82 | 45.7 | -1.43 | 74.4
ARHGEF6 (Rac/Cdc42 guanine nucleotide exchange factor 6) | 2 | -0.162 | 78.7 | -0.2 | 92.7
ARHGEF6 (Rac/Cdc42 guanine nucleotide exchange factor 6) | 3 | -0.646 | 69 | -1.18 | 105
ANGPT4 (angiopoietin 4) | 1 | 0.39 | 89.6 | 0.313 | 92.3
ANGPT4 (angiopoietin 4) | 2 | 0.156 | 85 | 1.09 | 71.3
ANGPT4 (angiopoietin 4) | 3 | -0.437 | 73.2 | -0.57 | 95
DLX6 (distal-less homeobox 6) | 1 | -0.904 | 63.9 | -0.977 | 92.4
DLX6 (distal-less homeobox 6) | 2 | -1.03 | 61.3 | -1.04 | 90
DLX6 (distal-less homeobox 6) | 3 | 1.25 | 107 | 1.3 | 84.8
FAM9A (family with sequence similarity 9 member A) | 1 | -1.44 | 53.3 | 0.128 | 57.6
FAM9A (family with sequence similarity 9 member A) | 2 | -2.26 | 37 | -0.547 | 47.8
FAM9A (family with sequence similarity 9 member A) | 3 | -0.82 | 65.6 | -0.899 | 92.9
MRPL27 (mitochondrial ribosomal protein L27) | 1 | 0.452 | 90.9 | 0.644 | 85.7
MRPL27 (mitochondrial ribosomal protein L27) | 2 | -1.32 | 55.5 | -1.84 | 101
MRPL27 (mitochondrial ribosomal protein L27) | 3 | -0.448 | 73 | -0.339 | 89.2
PTPRQ (protein tyrosine phosphatase receptor type Q) | 1 | 0.156 | 85 | 1.56 | 62.9
PTPRQ (protein tyrosine phosphatase receptor type Q) | 2 | -0.53 | 71.3 | -0.0366 | 80.5
PTPRQ (protein tyrosine phosphatase receptor type Q) | 3 | -2.02 | 41.8 | -1.18 | 63.6
CDK5 (cyclin dependent kinase 5) | 1 | -0.0659 | 80.6 | 1.87 | 55
CDK5 (cyclin dependent kinase 5) | 2 | 1.57 | 113 | 1.13 | 93.8
CDK5 (cyclin dependent kinase 5) | 3 | -1.72 | 47.6 | -1.91 | 88.1
TMEM131 (transmembrane protein 131) | 1 | 0.252 | 86.9 | 0.24 | 91.2
TMEM131 (transmembrane protein 131) | 2 | -0.333 | 75.3 | -0.398 | 93.4
TMEM131 (transmembrane protein 131) | 3 | 0.0598 | 83.1 | -0.301 | 100
HECTD2 (HECT domain E3 ubiquitin protein ligase 2) | 1 | -0.693 | 68.1 | -0.871 | 95.7
HECTD2 (HECT domain E3 ubiquitin protein ligase 2) | 2 | -0.265 | 76.6 | -0.724 | 104
HECTD2 (HECT domain E3 ubiquitin protein ligase 2) | 3 | -1.39 | 54.1 | -1.29 | 84.9

Records listed above marked active, once more:
target | siRNA no. | total luciferase, z-score | total luciferase, % of control | luciferase per cell, z-score | viable cells, % of control
SLAMF7 (SLAM family member 7) | 1 | 4.89 (active) | 179 | 2.85 | 94.5
PMEPA1 (prostate transmembrane protein, androgen induced 1) | 1 | 3.89 (active) | 159 | 2.4 | 94.7
